Experimental data: PubChem BioAssay AID206 (DTP/NCI, 2004)
The list is a part of this screen's results and no random one: it gathers tests that were run many times, whatever their T/C, doses with no T/C, and many T/C values between a quarter and a half above the control. Other doses and runs of a compound stand elsewhere. T/C gives the treated animals as a percentage of the vehicle group. Schedules are NCI's codes, taken here to give the interval after Q, in days (D) or hours (H), and the number of doses after X. Some doses were run more than once; the values are given in rising order. Some T/C values carry the count of animals alive at the toxicity check (mostly the fifth day); without a count, all were alive then. Some doses have a count of surviving animals in place of a T/C: the source files T/C as zero there, which appears to mark a toxic dose or a test without result, not a measured value. Survivors were counted at the toxicity check, usually on the fifth day, unless a day is given; later deaths do not show.

Tested on: nude mice, HT29 intrarenal xenograft, tumor weight T/C
Assay: NCI In Vivo Anticancer Drug Screen. Data for tumor model HT29;CX-1 Human Adenocarcinoma (MER+) (intrarenal inoculation) in NU/NU Swiss (nude) mice
Conditions: T/C endpoint: mean tumor weight change, higher T/C = larger tumour
Outline: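 Readout: treated/vehicle-control ratio of the measured endpoint (tumor size or survival) in transplanted-tumor mice.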

[1] = dose: 200.0 mg/kg/injection, schedule: Q01DX010 (sc), vehicle: saline
[2] = dose: 200.0 mg/kg/injection, schedule: Q01DX010 (sc), vehicle: saline with Tween-80
[3] = dose: 400.0 mg/kg/injection, schedule: Q01DX010 (sc), vehicle: saline
[4] = dose: 800.0 mg/kg/injection, schedule: Q01DX010 (sc), vehicle: saline
[5] = dose: 100.0 mg/kg/injection, schedule: Q01DX010 (sc), vehicle: saline with Tween-80, evaluated on day 11

For CN(C)CCN1C(=O)c2cccc3cc([N+](=O)[O-])cc(c23)C1=O, the T/C (dose: 9.0 mg/kg/injection, schedule: Q04DX004 (sc), vehicle: saline with Tween-80, evaluated on day 15) was 126 % of control, the survivor count (dose: 36.0 mg/kg/injection, schedule: Q04DX004 (sc), vehicle: saline with Tween-80) was 2 of 6 on day 15 and the survivor count (dose: 72.0 mg/kg/injection, schedule: Q04DX004 (sc), vehicle: saline with Tween-80) was 0 of 6 on day 15.
In the case of CC1CN1P1(N2CC2C)=NP(N2CC2C)(N2CC2C)=NP(N2CC2C)(N2CC2C)=N1 (centres undefined), the T/C (dose: 25.0 mg/kg/injection, schedule: Q01DX010 (sc), vehicle: saline, evaluated on day 11) was 146 % of control and the survivor count [1] was 0 of 3 on day 11.
For COc1cc2cc3cc4cc(OC)c(OC)cc4c(C)[n+]3cc2cc1OC (tested in a mixture with another compound), the survivor count (dose: 1600.0 mg/kg/injection, schedule: Q04DX004 (sc), vehicle: suspension in saline) was 0 of 6 on day 15.
In the case of Cn1c2nc(=O)n(-c3ccccc3)c(=O)c-2nc2c1CCCC2, the survivor count (dose: 600.0 mg/kg/injection, schedule: Q04DX004 (sc), vehicle: saline with Tween-80) was 0 of 6 on day 15 and the survivor count (dose: 1200.0 mg/kg/injection, schedule: Q04DX004 (sc), vehicle: saline with Tween-80) was 0 of 6 on day 15.
For O=Cc1ccc([N+](=O)[O-])s1, the survivor count [2] was 0 of 3 on day 11.
CN(C)N=Nc1cccc(C(N)=O)c1 was tested, and the survivor count (dose: 200.0 mg/kg/injection, schedule: Q04DX004 (sc), vehicle: Klucel (hydroxypropylcellulose) (HPC)) was 0 of 6 on day 15.
In the case of C=C1C(=O)C23[C@H](O)C1CC[C@H]2[C@]12COC3(O)[C@@H](O)[C@@H]1C(C)(C)CC[C@@H]2O, the T/C (dose: 12.5 mg/kg/injection, schedule: Q04DX004 (sc), vehicle: Klucel (hydroxypropylcellulose) (HPC), evaluated on day 15) was 128 % of control, the survivor count (dose: 50.0 mg/kg/injection, schedule: Q04DX004 (sc), vehicle: Klucel (hydroxypropylcellulose) (HPC)) was 0 of 6 on day 15 and the survivor count (dose: 100.0 mg/kg/injection, schedule: Q04DX004 (sc), vehicle: Klucel (hydroxypropylcellulose) (HPC)) was 0 of 6 on day 15.
For Nc1nncs1, the T/C (dose: 6.25 mg/kg/injection, schedule: Q01DX010 (sc), vehicle: saline, evaluated on day 11) was 125 % of control [2 of 2 alive on day 11], the survivor count (dose: 25.0 mg/kg/injection, schedule: Q01DX010 (sc), vehicle: saline) was 1 of 3 on day 11 and the survivor count (dose: 100.0 mg/kg/injection, schedule: Q01DX010 (sc), vehicle: saline) was 1 of 3 on day 11. The survivor count [1] was 0 of 3 on day 11, the survivor count [3] was 0 of 3 on day 11 and the survivor count [4] was 0 of 3 on day 11.
CO[C@H]1C[C@@H]2CC[C@@H](C)[C@@](O)(O2)C(=O)C(=O)N2CCCC[C@H]2C(=O)O[C@H]([C@H](C)C[C@@H]2CC[C@@H](O)[C@H](OC)C2)CC(=O)[C@H](C)C=C(C)[C@@H](O)[C@@H](OC)C(=O)[C@H](C)C[C@H](C)/C=C/C=C/C=C1C was tested, and the T/C [5] was 1 [2 of 2 alive on day 11], 29, 42, 63 % of control, the T/C (dose: 200.0 mg/kg/injection, schedule: Q01DX010 (sc), vehicle: saline with Tween-80, evaluated on day 11) was 4 [2 of 2 alive on day 11], 26, 40, 82, 106 % of control and the T/C (dose: 400.0 mg/kg/injection, schedule: Q01DX010 (sc), vehicle: saline with Tween-80, evaluated on day 11) was 16 [2 of 2 alive on day 11], 25, 43, 71, 81 % of control. The T/C (dose: 800.0 mg/kg/injection, schedule: Q01DX010 (sc), vehicle: saline with Tween-80, evaluated on day 11) was 17, 36, 90 % of control and the survivor count (dose: 800.0 mg/kg/injection, schedule: Q01DX010 (sc), vehicle: saline with Tween-80) was 1 of 2 on day 11.
With CC1=C[S+](c2ccccc2)c2cccc3cc4ccccc4c1c23 (centres undefined) the survivor count (dose: 32.0 mg/kg/injection, schedule: Q04DX004 (sc), vehicle: saline with Tween-80) was 3 of 6 on day 15 and the survivor count (dose: 64.0 mg/kg/injection, schedule: Q04DX004 (sc), vehicle: saline with Tween-80) was 0 of 6 on day 15.
For [Cl][Pt+2][Cl].[NH-]C1CCC1.[NH2-], the survivor count (dose: 50.0 mg/kg/injection, schedule: Q04DX004 (sc), vehicle: suspension in saline) was 1 of 6 on day 15.
For O=C(/C=C(\Cl)C(=O)NO)NO, the survivor count (dose: 400.0 mg/kg/injection, schedule: Q04DX004 (sc), vehicle: saline) was 0 of 6 on day 15.
In the case of Clc1ccc(C2SC=Cc3ccccc32)cc1 (centres undefined), the T/C (dose: 1200.0 mg/kg/injection, schedule: Q04DX004 (sc), vehicle: Klucel (hydroxypropylcellulose) (HPC), evaluated on day 15) was 129 % of control [5 of 6 alive on day 15] and the T/C (dose: 2400.0 mg/kg/injection, schedule: Q04DX004 (sc), vehicle: Klucel (hydroxypropylcellulose) (HPC), evaluated on day 15) was 148 % of control [5 of 6 alive on day 15].
In the case of OC(CBr)C(O)C(O)C(O)CBr (centres undefined), the survivor count (dose: 120.0 mg/kg/injection, schedule: Q01DX010 (sc), vehicle: Klucel (hydroxypropylcellulose) (HPC)) was 0 of 3 on day 11, the survivor count (dose: 240.0 mg/kg/injection, schedule: Q01DX010 (sc), vehicle: Klucel (hydroxypropylcellulose) (HPC)) was 0 of 3 on day 11 and the survivor count (dose: 480.0 mg/kg/injection, schedule: Q01DX010 (sc), vehicle: Klucel (hydroxypropylcellulose) (HPC)) was 0 of 3 on day 11. The survivor count (dose: 800.0 mg/kg/injection, schedule: Q01DX010 (sc), vehicle: Klucel (hydroxypropylcellulose) (HPC)) was 0 of 3 on day 11 and the survivor count (dose: 1600.0 mg/kg/injection, schedule: Q01DX010 (sc), vehicle: Klucel (hydroxypropylcellulose) (HPC)) was 0 of 2 on day 11.
In the case of OCC1OC(n2cnc3cc(Cl)c(Cl)cc32)C(O)C1O (centres undefined), the survivor count (dose: 2400.0 mg/kg/injection, schedule: Q04DX004 (sc), vehicle: saline with Tween-80) was 1 of 6 on day 15.
With N#Cc1cn(C2OC(CO)C(O)C2O)c2ncnc(N)c12 (centres undefined) the survivor count (dose: 1.0 mg/kg/injection, schedule: Q01DX010 (sc), vehicle: saline) was 0 of 2 on day 11 and 1 of 3 on day 11, the survivor count (dose: 2.0 mg/kg/injection, schedule: Q01DX010 (sc), vehicle: saline) was 0 of 3 on day 11 and the survivor count (dose: 4.0 mg/kg/injection, schedule: Q01DX010 (sc), vehicle: saline) was 0 of 3 on day 11.
With C[n+]1cccc(NC(=O)c2ccc(NC(=O)C34CCC(C(=O)Nc5ccc(C(=O)Nc6ccc[n+](C)c6)cc5)(CC3)CC4)cc2)c1 the survivor count (dose: 100.0 mg/kg/injection, schedule: Q04DX004 (sc), vehicle: saline with Tween-80) was 0 of 6 on day 15 and 2 of 6 on day 15, the survivor count (dose: 200.0 mg/kg/injection, schedule: Q04DX004 (sc), vehicle: saline with Tween-80) was 0 of 6 on day 15 and the survivor count (dose: 400.0 mg/kg/injection, schedule: Q04DX004 (sc), vehicle: saline with Tween-80) was 0 of 6 on day 15.
With Nc1nc2ccc(NCc3ccc(C(=O)NC(CCC(=O)O)C(=O)O)cc3)cc2c(=O)[nH]1 (centres undefined) the survivor count (dose: 800.0 mg/kg/injection, schedule: Q04DX004 (sc), vehicle: saline with Tween-80) was 0 of 6 on day 15.
With COc1cccc2c1C(=O)c1c(O)c3c(c(O)c1C2=O)CC(O)(/C(C)=N/NC(=O)CCC(=O)N/N=C(\C)C1(O)Cc2c(O)c4c(c(O)c2C(OC2CC(N)C(O)C(C)O2)C1)C(=O)c1c(OC)cccc1C4=O)CC3OC1CC(N)C(O)C(C)O1 (centres undefined) the survivor count (dose: 50.0 mg/kg/injection, schedule: Q01DX010 (sc), vehicle: water) was 0 of 3 on day 20 and the survivor count (dose: 125.0 mg/kg/injection, schedule: Q04DX004 (sc), vehicle: water) was 1 of 3 on day 15.
With CC1(CO)C(O)CCC2(C)C1CCC1CC3CC12CCC3(O)CO (centres undefined) the T/C (dose: 25.0 mg/kg/injection, schedule: Q01DX010 (sc), vehicle: saline with Tween-80, evaluated on day 11) was 142 % of control, the T/C [5] was 142 % of control and the survivor count [2] was 1 of 3 on day 11. For the same compound, the survivor count (dose: 400.0 mg/kg/injection, schedule: Q01DX010 (sc), vehicle: saline with Tween-80) was 1 of 3 on day 11.
In the case of CC[C@H]1CN2CCc3cc(OC)c(OC)cc3[C@@H]2C[C@@H]1C[C@H]1NCCc2cc(OC)c(OC)cc21, the survivor count (dose: 8.0 mg/kg/injection, schedule: Q01DX010 (sc), vehicle: saline) was 0 of 3 on day 20.
COc1c(CNC(=O)CCl)cc2[nH]c(C)cc2c1CNC(=O)CCl was tested, and the survivor count (dose: 1200.0 mg/kg/injection, schedule: Q04DX004 (sc), vehicle: Klucel (hydroxypropylcellulose) (HPC)) was 1 of 6 on day 15 and the survivor count (dose: 2400.0 mg/kg/injection, schedule: Q04DX004 (sc), vehicle: Klucel (hydroxypropylcellulose) (HPC)) was 3 of 6 on day 15.
For C1CN2CN3CCN(CN1C3)C2, the survivor count [3] was 0 of 3 on day 11 and the survivor count [4] was 0 of 3 on day 11.
